According to PubChem BioAssay AID1508600 (Functional Genomics Laboratory (NCATS/FGL), 2020):
The whole screen tested about 53,000 sequences, of which about 3,700 (7%) were called active.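 Rule for the calls: active = gene knockdowns whose robust z-score for IL-1 alpha signal is at least 2 or at most -2, so actives lie on both sides; inactive = the rest.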 This is one part of the list.

Assay: Components of the Cytosolic LPS Sensing Pathway: Gene Identification via Genome-wide siRNA Screen;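 note: robust z of the log signal after scaling to non-targeting control siRNA wells of the plate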
Settings: RAW264.7 macrophages, IL-1a HTRF, actives lie on both sides, screened at 100 nM (by protocol), cells primed 5 h with Pam3CSK4 first
Summary of the method: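 RAW264.7 mouse macrophages reverse-transfected with single siRNAs (100 nM final) for 48h, primed with Pam3CSK4 for 5 hours, then transfected with LipidA for 24 hour. Supernatant IL-1a read by HTRF; values normalized to negative-control median, log-transformed robust z-scores.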

Q: With GGAGCUCUGGCACUUUGUCTT against Gramd1b as the sequence, how does the z-score read?
A: The z-score was inactive: 0.37.

Q: For GCCUCGAAUGCUAGACUUCTT against Faf1, which z-score is on record?
A: Its z-score is inactive: -1.46.

Q: Which z-score does the source give for GGGUCUCUCAAAGAUCCUGTT against Zfp768 here?
A: The z-score was inactive: 0.75.

Q: With GGAGCAUAUACAACUCAGCTT against Dis3l as the sequence, how does the z-score read?
A: Its z-score is inactive: 0.1.

Q: With GCCCAGUACUCCGCUUACATT against Bhlhe23 as the sequence, how does the z-score read?
A: Its z-score is active: -2.03.

Q: With GGACUUGCUAGAUACGAUCTT against Edaradd as the sequence, how does the z-score read?
A: Its z-score is inactive: 0.175.

Q: For GGGUUAGCCAGAGCUCUAATT against N4bp2l1, which z-score is on record?
A: Its z-score is active: 3.03.

Q: With GAGUGAUCUUCCACUUACGTT against Cracr2b as the sequence, how does the z-score read?
A: Its z-score is inactive: 1.82.

Q: Which z-score does the source give for GCGAUUGAUGAAUUUCGACTT against Atp9b here?
A: The z-score was inactive: 0.616.

Q: For GGAGAGCAGACAAAAAUGATT against Necab1, which z-score is on record?
A: Its z-score is inactive: -0.675.

Q: For “GGUAAUGAAUGGACAAUGATT against 9130401M01Rik”, which z-score is on record?
A: Its z-score is inactive: -0.478.

Q: For GGAGCAUUCACCUGUCUGUTT against Gdf9, which z-score is on record?
A: Its z-score is inactive: -0.145.

Q: For GCAGGUUCAUACGAUCCAGTT against Plekha3, which z-score is on record?
A: The z-score was inactive: -0.7.

Q: For CGACCUGUGGGUUAACCCATT against Tspyl2, which z-score is on record?
A: Its z-score is inactive: -0.522.

Q: With GGUGGUGAACUGUUUGACCTT against Pnck as the sequence, how does the z-score read?
A: The z-score was inactive: -1.58.

Q: Which z-score does the source give for GGCAGGCAGAAGGCUUUUUTT against Olfr228 here?
A: The z-score was inactive: 1.07.

Q: For GGAGUUACAUGGCUCUUGATT against Ptgdr2, which z-score is on record?
A: Its z-score is inactive: -0.459.

Q: Which z-score does the source give for GGAAAGCAUGCAGUUCAUATT against Cyp4f13 here?
A: Its z-score is inactive: 0.338.

Q: With CGAGGAUACGUUUGCAUCUTT against Cipc as the sequence, how does the z-score read?
A: Its z-score is inactive: -0.676.

Q: For GCUGCAUCAAAUCUUCCAUTT against Prl8a6, which z-score is on record?
A: The z-score was inactive: 0.771.

Q: For GGCAAUGGCUUCGUAGUAUTT against Ltb4r2, which z-score is on record?
A: The z-score was inactive: -0.000654.

Q: With CCAGUAUUAUCUAACAUCGTT against Pdk4 as the sequence, how does the z-score read?
A: Its z-score is inactive: -0.626.

Q: For GGACAAAAGACAAUCGAGATT against Parp2, which z-score is on record?
A: The z-score was inactive: -0.273.

Q: Which z-score does the source give for GCCAUGGAGCUCAUUUGGATT against Nup85 here?
A: The z-score was inactive: -0.225.

Q: With GGAAGAAUGGAGCAGAGCUTT against Igdcc3 as the sequence, how does the z-score read?
A: The z-score was inactive: -0.858.

Q: With GGAAGAGGAGUCCUACUCUTT against Pla2g12b as the sequence, how does the z-score read?
A: The z-score was inactive: -1.14.

Q: For GGUCUCUUGACUUCAGUACTT against Shc3, which z-score is on record?
A: Its z-score is inactive: 0.76.

Q: For GGAUGAAGAACUCAGAGUGTT against Slc66a2, which z-score is on record?
A: The z-score was inactive: -1.24.

Q: Which z-score does the source give for GGAAAGAAAGGGAACAAAATT against Ccdc34 here?
A: The z-score was inactive: 0.869.

Q: With GCACUUAAUACUUUAUGUGTT against Iapp as the sequence, how does the z-score read?
A: The z-score was inactive: -1.27.

Q: With GGAAACCUGAUUAUCAUCATT against Olfr791 as the sequence, how does the z-score read?
A: The z-score was inactive: -0.337.

Q: Which z-score does the source give for GGCCUAAUUUCCUCUAAUATT against Padi1 here?
A: Its z-score is inactive: 0.452.

Q: For GGAUAGAGAUUCCAAACAUTT against Rxfp2, which z-score is on record?
A: Its z-score is inactive: -0.969.

Q: With CCACAGUACGCUGAAAUCCTT against Morf4l1 as the sequence, how does the z-score read?
A: The z-score was active: -2.27.

Q: With GCAUUGGAACCAUGUGCUGTT against Prss46 as the sequence, how does the z-score read?
A: Its z-score is inactive: -1.59.

Q: With GGCAUACAAGAAGUGUCUATT against Snta1 as the sequence, how does the z-score read?
A: The z-score was inactive: -1.19.

Q: With GGAACUUAACUUACACAUGTT against Nr2f1 as the sequence, how does the z-score read?
A: The z-score was inactive: 0.616.

Q: With CGAUCGAUGUUAAAUGUAGTT against Nppa as the sequence, how does the z-score read?
A: Its z-score is inactive: -0.805.

Q: Which z-score does the source give for GGUUCCUAUACCCAACGGUTT against Mrgpra7 here?
A: The z-score was inactive: -1.07.

Q: For GGUGCUAGUGGUGACCAUGTT against Pign, which z-score is on record?
A: The z-score was active: 2.2.

Q: For GCAAAAGAGUUGGAGUUAGTT against Pcnt, which z-score is on record?
A: Its z-score is inactive: 0.649.

Q: For GCAUCAUCUGAUCUGCACGTT against Nkx2-9, which z-score is on record?
A: Its z-score is inactive: -0.969.

Q: Which z-score does the source give for GGAGAAAGAGAUCACCAUCTT against Slc8a2 here?
A: The z-score was inactive: -0.0135.

Q: With GGCCUUUCACAAAUUAGCCTT against Dnajb9 as the sequence, how does the z-score read?
A: The z-score was inactive: 0.864.

Q: For GGUGUUCUUACCUUUUGACTT against Il9r, which z-score is on record?
A: Its z-score is inactive: -0.128.

Q: With GGUGCUGGACGAAAUUGUATT against Arhgdig as the sequence, how does the z-score read?
A: The z-score was inactive: 1.36.

Q: With GGAGAGUGCUGAUGUUCUGTT against Rhox6 as the sequence, how does the z-score read?
A: The z-score was active: 2.26.

Q: Which z-score does the source give for GGGAGGCAUAGUCAAAUUGTT against Ccdc87 here?
A: The z-score was inactive: -0.62.

Q: Which z-score does the source give for GGCUAAUGCUCCUUCAUGUTT against Myo18a here?
A: The z-score was inactive: -0.439.

Q: Which z-score does the source give for GGUAUUCGUGGUGAUGGAGTT against Prkd2 here?
A: The z-score was inactive: 1.35.

Q: For CCAGCAAAGACAAGUCUCCTT against Hoxb9, which z-score is on record?
A: Its z-score is inactive: 1.79.

Q: Which z-score does the source give for GGACUGAGAAAAUCUUCCGTT against Hpca here?
A: Its z-score is inactive: -0.385.

Q: For GGAAUGUAACUGAAAGACUTT against Myo1c, which z-score is on record?
A: Its z-score is inactive: 0.486.

Q: For GGGAUCCACAAAUAAAAGATT against Klk4, which z-score is on record?
A: The z-score was inactive: 0.182.

Q: With GGUAAAUACUGUUUCUUAGTT against Lsm14a as the sequence, how does the z-score read?
A: Its z-score is inactive: 0.823.

Q: Which z-score does the source give for GCACUAGAAGUGUCUUUUCTT against Cdhr1 here?
A: Its z-score is active: 2.17.

Q: With GGGAAAUGCUGAUUCUCGATT against Spink12 as the sequence, how does the z-score read?
A: The z-score was inactive: 0.614.

Q: For GGUUGACUUAAAUGUCAGGTT against Rxrb, which z-score is on record?
A: The z-score was inactive: -0.419.

Q: Which z-score does the source give for GCCACAUUGCUUAUGGCUGTT against Yipf7 here?
A: The z-score was inactive: 1.46.

Q: For CCUGGAAUGUAUUUGUUAUTT against Nkain2, which z-score is on record?
A: The z-score was inactive: 0.0256.

Q: Which z-score does the source give for GGAACGAGAAGAAGAAGAATT against Acin1 here?
A: Its z-score is inactive: 0.169.

Q: For GGACCUGCCCAAAUCUGAUTT against Fbxo40, which z-score is on record?
A: Its z-score is inactive: 0.307.

Q: For GGCCAUCGAUUUUGAAUACTT against Isy1, which z-score is on record?
A: Its z-score is inactive: -0.284.

Q: With GGUAAAGCUGAAGACAAGGTT against Rps2 as the sequence, how does the z-score read?
A: The z-score was inactive: 0.745.

Q: Which z-score does the source give for AACAACUGAGCAAAUCCACTT against Alyref here?
A: Its z-score is inactive: -0.569.

Q: Which z-score does the source give for CGGGUAUCAUCGAUUAUGGTT against Tnfaip6 here?
A: The z-score was inactive: -0.356.

Q: With GGCAUUUUGAGACUCUACUTT against Crygb as the sequence, how does the z-score read?
A: The z-score was inactive: 1.05.

Q: For GGUCAGCGUGGAGUCAAUATT against Fam184b, which z-score is on record?
A: The z-score was inactive: -1.92.
